# Reference: PubChem BioAssay AID504808 (Drosophila RNAi Screening Center, 2011)
# Screen: 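Chromatin factors that keep E2F targets switched off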 (primary screen)
# System: Drosophila S2 cells
# Knock-down reagent: long dsRNA against Drosophila genes
# Detection: 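Firefly luciferase driven by E2F sites, normalised to Renilla luciferase on the same minimal promoter, measured by plate reader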
# Direction: E2F firefly: higher = more E2F reporter activity; Renilla normaliser: higher = more normaliser reporter signal
# Rule for the call: 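a knock-down counted as active when the firefly/Renilla E2F signal rose above 50%, a threshold chosen arbitrarily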
# The screen tested about 21,000 reagents; this is a random part of those with a known target gene and a result. Over the whole deposit, 18 (0.084%) got an active call. 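Raw counts without plate normalisation, one of two replicates; the ratio scores behind the calls were not deposited.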 A number with no mark means an inactive call. A plus sign joins genes that one reagent is predicted to hit. Not given: the amount of reagent, the time to read-out.
The first 5 records as a preview:
Target gene,DRSC id,"E2F firefly, rep 1","Renilla normaliser, rep 1"
TrpA1 (Transient receptor potential cation channel A1),DRSC10544,1.00e5,4054
CG32055,DRSC10666,89929,3703
Fbp1 (Fat body protein 1),DRSC11166,1.84e5,6582
Klf15 (Kruppel-like factor 15),DRSC17742,73934,4886
Nepl17 (Neprilysin-like 17),DRSC14880,1.12e5,6749

The listing, from the start:
Target gene,DRSC id,"E2F firefly, rep 1","Renilla normaliser, rep 1"
TrpA1 (Transient receptor potential cation channel A1),DRSC10544,1.00e5,4054
CG32055,DRSC10666,89929,3703
Fbp1 (Fat body protein 1),DRSC11166,1.84e5,6582
Klf15 (Kruppel-like factor 15),DRSC17742,73934,4886
Nepl17 (Neprilysin-like 17),DRSC14880,1.12e5,6749
Arts + Apl,DRSC10349,1.78e5,8759
CG17028,DRSC10239,1.54e5,7230
Zir (Zizimin-related),DRSC00307,95920,3522
CG9522,DRSC20197,2.44e5,8086
GCS2alpha (Glucosidase 2 alpha subunit),DRSC21036,1.39e5,7032
tei (teiresias),DRSC07616,89991,4428
CG32733 (retired record) + CG32797,DRSC17705,81819,2730
Mrp4 (Multidrug resistance protein 4),DRSC14931,1.45e5,6754
CG15767,DRSC18073,89839,5264
crc (cryptocephal),DRSC03513,1.02e5,4350
SIDL (Shal Interactor of Di-Leucine Motif),DRSC16077,75920,3829
Cpr76Bd (Cuticular protein 76Bd),DRSC11063,1.39e5,5555
Ir76b (Ionotropic receptor 76b),DRSC10831,1.22e5,6801
Paip1 (Poly(A) binding protein interacting protein 1),DRSC07302,62061,3120
Mlp84B (Muscle LIM protein at 84B),DRSC12596,1.37e5,7360
eIF6 (eukaryotic translation initiation factor 6),DRSC04674,84655,4315
Uba3 (Ubiquitin-like activating enzyme 3),DRSC06377,2574,208
CG15432,DRSC00447,1.23e5,5569
CG17065,DRSC20544,1.45e5,5469
Snmp1 (Sensory neuron membrane protein 1),DRSC16168,99523,5001
Synd (Syndapin),DRSC15116,1.21e5,6740
Ptpa (Phosphotyrosyl phosphatase activator),DRSC00776,85190,3506
Sec6 (Secretory 6),DRSC06932,83145,3397
His4r (Histone H4 replacement),DRSC16703,57597,25922
Rev1 (DNA polymerase Rev1),DRSC08264,79445,3800
Or85b (Odorant receptor 85b),DRSC16765,1.41e5,5995
NK7.1,DRSC16755,61356,3351
CG5023,DRSC15697,1.10e5,5424
Poxm (Pox meso),DRSC16793,1.46e5,6874
CG31287,DRSC13138,76147,2292
ninaB (neither inactivation nor afterpotential B),DRSC16807,1.23e5,6563
Kdm4A (Lysine demethylase 4A),DRSC06586,3190,206
"Adat1 (Adenosine deaminase, tRNA-specific 1)",DRSC03479,1.09e5,4225
CG18764,DRSC15391,1.40e5,6499
Rpt6R (Regulatory particle triple-A ATPase 6-related),DRSC15431,1.26e5,6504
CG7330,DRSC10813,1.73e5,8786
CG7330,DRSC10814,1.60e5,8578
GstE7 (Glutathione S transferase E7),DRSC06677,77865,3341
Tif-IA,DRSC03717,66889,3747
Tif-IA,DRSC03726,89419,4198
EMC8-9 (ER membrane protein complex subunit 8/9),DRSC04380,73390,3150
ms(3)76Cc (male sterile (3) 76Cc),DRSC11071,1.41e5,7300
Gpxl (Glutathione peroxidase-like),DRSC06538,1.48e5,5226
Zip42C.1 (Zinc/iron regulated transporter-related protein 42C.1),DRSC05003,1.05e5,3883
fray (frayed),DRSC16950,1.32e5,7108
Dpm1 (Dolichyl-phosphate mannosyltransferase subunit 1),DRSC02018,95499,4219
CG10936,DRSC05669,1.61e5,7291
CG10936,DRSC05670,1.54e5,6999
CG10936,DRSC06018,1.51e5,5542
tank,DRSC00461,1.57e5,4895
PolA2 (DNA polymerase alpha subunit 2),DRSC16641,1.02e5,5601
CG15115,DRSC06537,52857,3529
eIF4E5 (eukaryotic translation initiation factor 4E5),DRSC10975,96505,3639
Lip4 (Lipase 4),DRSC02930,1.46e5,5051
Ufd4 (Ubiquitin fusion-degradation 4-like),DRSC02871,1.51e5,5469
Yeti,DRSC21138,1.36e5 (active),2867
CG32726,DRSC17521,82163,2419
CG4269,DRSC04457,1.05e5,4056
Aef1 (Adult enhancer factor 1),DRSC11605,1.25e5,6284
CG16787,DRSC04282,1.02e5,4237
CG13377,DRSC18622,1.03e5,5230
tweek,DRSC02433,1.06e5,4522
tweek,DRSC02434,1.04e5,4520
tweek,DRSC02785,80211,2836
CG4998,DRSC10466,1.62e5,6193
Orc2 (Origin recognition complex subunit 2),DRSC16776,70064,3190
fd3F (retired record),DRSC17843,54653,4068
tna (tonalli),DRSC09053,1.36e5,5113
tna (tonalli),DRSC10937,1.09e5,5115
CG14207,DRSC19562,1.60e5,5885
CG14207,DRSC19563,1.32e5,157
CG11858,DRSC14412,1.01e5,6456
CG5885,DRSC02910,77598,3543
CG8043,DRSC16368,1.44e5,6962
RhoGDI,DRSC10919,69321,3439
Drsl2 (Drosomycin-like 2),DRSC08160,1.06e5,3772
CG34435,DRSC18086,1.14e5,5670
REPTOR (Repressed by TOR),DRSC14626,67483,3250
Alg7,DRSC02833,95519,3337
Alg7,DRSC02834,95949,4708
CG32106,DRSC09219,1.34e5,4626
CG8414,DRSC07168,1.47e5,5284
CCT5 (Chaperonin containing TCP1 subunit 5),DRSC07357,2613,235
Ptp4E (Protein tyrosine phosphatase 4E),DRSC18701,8157,708
LIMK1 (LIM domain kinase 1),DRSC19811,7993,692
CG32845,DRSC07867,1.24e5,4320
cta (concertina),DRSC03769,75417,3833
l(1)10Bb (lethal (1) 10Bb),DRSC20346,1.08e5,6324
Lamtor2 + CG30120,DRSC05726,1.54e5,6280
Lamtor2 + CG30120,DRSC06922,1.33e5,5072
Cyp9c1 (Cytochrome P450 9c1),DRSC04607,90639,3640
Mcm10 (Minichromosome maintenance 10),DRSC03162,82893,3554
Herp (Homocysteine-induced endoplasmic reticulum protein),DRSC02394,87989,4265
CG31776,DRSC00716,1.37e5,5163
NPF (neuropeptide F),DRSC17019,1.16e5,6141
His2Av (Histone H2A variant),DRSC16702,1739,872
nudE,DRSC09000,1.29e5,4974
nudE,DRSC10962,1.20e5,6760
CG1889,DRSC18195,7721,720
Usp2 (Ubiquitin specific protease 2),DRSC20590,76828,3023
Usp2 (Ubiquitin specific protease 2),DRSC20632,1.35e5,4880
Usp2 (Ubiquitin specific protease 2),DRSC20633,1.30e5,6646
